This note sets out measurements from patent US20030120051A1.

Sequences of proteins named here, by UniProt entry; tags and fusion partners are left off. A change or cut given only in a name is not applied to a line headed by its entry.
UniProt P23471: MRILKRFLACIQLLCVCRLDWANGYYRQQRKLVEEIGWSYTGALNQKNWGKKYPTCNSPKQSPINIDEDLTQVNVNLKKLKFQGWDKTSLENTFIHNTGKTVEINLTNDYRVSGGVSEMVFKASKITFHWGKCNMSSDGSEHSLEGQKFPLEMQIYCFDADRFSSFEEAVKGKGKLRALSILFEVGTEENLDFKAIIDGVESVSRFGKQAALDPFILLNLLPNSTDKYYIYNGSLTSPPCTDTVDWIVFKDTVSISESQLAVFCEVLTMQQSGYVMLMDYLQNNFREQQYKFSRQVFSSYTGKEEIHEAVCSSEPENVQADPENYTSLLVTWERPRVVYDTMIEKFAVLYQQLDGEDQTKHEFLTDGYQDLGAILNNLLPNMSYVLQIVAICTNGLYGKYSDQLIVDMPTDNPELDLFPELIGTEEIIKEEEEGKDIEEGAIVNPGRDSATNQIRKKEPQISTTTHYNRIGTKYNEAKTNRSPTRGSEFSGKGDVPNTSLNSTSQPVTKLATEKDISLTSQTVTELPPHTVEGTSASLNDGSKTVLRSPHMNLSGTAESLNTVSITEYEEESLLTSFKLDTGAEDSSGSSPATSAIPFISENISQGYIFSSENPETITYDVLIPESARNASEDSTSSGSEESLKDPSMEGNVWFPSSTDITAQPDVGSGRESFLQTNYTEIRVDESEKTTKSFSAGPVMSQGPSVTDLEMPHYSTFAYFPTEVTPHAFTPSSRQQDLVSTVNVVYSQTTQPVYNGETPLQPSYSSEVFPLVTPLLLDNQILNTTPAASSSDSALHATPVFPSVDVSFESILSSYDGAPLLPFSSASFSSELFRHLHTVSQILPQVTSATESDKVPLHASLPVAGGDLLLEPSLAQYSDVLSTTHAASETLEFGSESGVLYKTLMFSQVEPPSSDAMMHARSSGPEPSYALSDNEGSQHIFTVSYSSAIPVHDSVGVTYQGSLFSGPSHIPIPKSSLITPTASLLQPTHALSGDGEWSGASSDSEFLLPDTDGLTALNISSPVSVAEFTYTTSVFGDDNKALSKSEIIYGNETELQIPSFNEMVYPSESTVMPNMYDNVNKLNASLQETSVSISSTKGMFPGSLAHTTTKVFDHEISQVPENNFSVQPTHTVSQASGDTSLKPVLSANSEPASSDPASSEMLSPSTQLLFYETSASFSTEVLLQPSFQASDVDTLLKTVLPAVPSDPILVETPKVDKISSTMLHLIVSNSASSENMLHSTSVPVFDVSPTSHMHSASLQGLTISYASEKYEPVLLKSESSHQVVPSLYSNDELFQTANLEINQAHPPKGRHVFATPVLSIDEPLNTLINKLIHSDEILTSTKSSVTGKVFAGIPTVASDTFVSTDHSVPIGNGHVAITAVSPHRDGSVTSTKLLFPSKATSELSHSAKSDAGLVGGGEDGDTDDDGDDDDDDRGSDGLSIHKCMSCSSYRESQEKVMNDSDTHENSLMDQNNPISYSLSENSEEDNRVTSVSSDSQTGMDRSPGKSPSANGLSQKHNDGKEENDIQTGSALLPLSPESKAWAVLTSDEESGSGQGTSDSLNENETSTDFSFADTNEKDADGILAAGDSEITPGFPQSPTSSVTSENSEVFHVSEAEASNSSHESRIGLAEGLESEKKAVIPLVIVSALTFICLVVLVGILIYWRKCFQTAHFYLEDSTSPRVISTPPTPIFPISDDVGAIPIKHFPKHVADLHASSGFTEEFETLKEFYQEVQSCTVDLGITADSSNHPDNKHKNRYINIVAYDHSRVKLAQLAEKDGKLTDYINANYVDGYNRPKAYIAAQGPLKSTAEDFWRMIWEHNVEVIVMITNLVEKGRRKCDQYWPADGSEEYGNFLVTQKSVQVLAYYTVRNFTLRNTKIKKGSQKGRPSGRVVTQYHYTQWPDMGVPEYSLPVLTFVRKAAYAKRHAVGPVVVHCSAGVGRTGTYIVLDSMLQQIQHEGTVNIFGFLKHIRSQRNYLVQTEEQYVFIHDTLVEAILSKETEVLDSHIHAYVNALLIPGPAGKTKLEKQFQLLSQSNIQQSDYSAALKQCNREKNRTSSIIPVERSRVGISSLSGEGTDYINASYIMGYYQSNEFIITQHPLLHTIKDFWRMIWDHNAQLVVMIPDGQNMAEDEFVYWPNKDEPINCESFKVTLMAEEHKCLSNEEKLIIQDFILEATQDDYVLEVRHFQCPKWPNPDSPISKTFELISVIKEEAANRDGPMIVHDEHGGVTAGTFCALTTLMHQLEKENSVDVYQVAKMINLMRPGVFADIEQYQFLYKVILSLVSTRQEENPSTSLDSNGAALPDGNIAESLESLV

No constants are given. Whether binding was seen depends on the method and setting. For some assays here: Binding seen in cells or lysates may run through a third protein. Some results given as binding are weak or reduced against the parent protein; the word gives no strength. Sequences can lack the tags named with a protein.

In assay [1] the target is T1, HA-tagged rat CASPR/p190 (pCM190HA) (rat) (UniProt P97846).
T1 sequence: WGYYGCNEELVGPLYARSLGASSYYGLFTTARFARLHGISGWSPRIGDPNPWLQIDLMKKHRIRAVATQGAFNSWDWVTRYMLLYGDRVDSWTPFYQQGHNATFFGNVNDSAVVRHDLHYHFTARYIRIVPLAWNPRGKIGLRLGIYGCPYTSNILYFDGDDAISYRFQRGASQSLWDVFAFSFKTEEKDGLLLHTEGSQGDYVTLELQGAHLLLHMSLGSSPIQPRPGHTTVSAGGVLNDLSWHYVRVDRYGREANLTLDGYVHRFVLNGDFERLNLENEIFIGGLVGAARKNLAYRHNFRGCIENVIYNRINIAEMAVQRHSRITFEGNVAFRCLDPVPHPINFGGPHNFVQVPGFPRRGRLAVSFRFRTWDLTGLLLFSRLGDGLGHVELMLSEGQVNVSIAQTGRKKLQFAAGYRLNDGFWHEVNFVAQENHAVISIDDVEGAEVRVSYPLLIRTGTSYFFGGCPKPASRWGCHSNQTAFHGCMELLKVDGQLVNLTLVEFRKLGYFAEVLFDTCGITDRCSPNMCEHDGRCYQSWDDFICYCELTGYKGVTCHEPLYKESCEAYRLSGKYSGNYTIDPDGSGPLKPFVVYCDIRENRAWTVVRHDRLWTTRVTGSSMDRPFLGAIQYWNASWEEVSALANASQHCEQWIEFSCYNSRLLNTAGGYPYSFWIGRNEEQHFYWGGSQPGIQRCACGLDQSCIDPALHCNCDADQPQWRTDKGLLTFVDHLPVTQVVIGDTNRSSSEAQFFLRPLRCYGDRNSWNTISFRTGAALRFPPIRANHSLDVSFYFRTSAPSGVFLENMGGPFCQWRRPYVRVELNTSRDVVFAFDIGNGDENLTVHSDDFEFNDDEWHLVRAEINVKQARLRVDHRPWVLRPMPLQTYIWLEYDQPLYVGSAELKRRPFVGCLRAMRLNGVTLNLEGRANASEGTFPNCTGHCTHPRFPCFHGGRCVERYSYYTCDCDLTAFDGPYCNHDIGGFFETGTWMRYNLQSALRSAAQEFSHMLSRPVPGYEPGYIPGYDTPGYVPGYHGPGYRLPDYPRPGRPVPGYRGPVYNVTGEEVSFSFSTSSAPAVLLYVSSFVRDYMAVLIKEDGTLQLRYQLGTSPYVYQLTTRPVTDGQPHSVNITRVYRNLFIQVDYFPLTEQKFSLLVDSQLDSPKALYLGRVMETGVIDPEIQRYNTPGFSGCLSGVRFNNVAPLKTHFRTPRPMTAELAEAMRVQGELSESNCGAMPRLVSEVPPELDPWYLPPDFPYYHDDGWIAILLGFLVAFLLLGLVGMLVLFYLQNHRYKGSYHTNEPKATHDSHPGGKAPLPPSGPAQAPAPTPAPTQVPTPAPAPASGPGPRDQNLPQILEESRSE
Description: co-precipitation with βC-Fc from lysates of COS7 cells co-expressing contactin and tagged CASPR/p190.

Assay [2] has as its target βC/EK chimeric receptor (CAH domain of RPTPβ alone fused to the transmembrane and intracellular domains of the EGF receptor) (human) (UniProt P23471+P00533). The assay can be described thus: Fc-fusion binding to transfected COS7 cells.

B1: rat contactin (clone F8; p140 of GH3 cells) (receptor, UniProt Q63198 21-1001, looked up)
chain: EFTWHRRYGHGVSEEDKGFGPIFEEQPINTIYPEESLEGKVSLNCRARASPFPVYKWRMNNGDVDLTNDRYSMVGGNLVINNPDKQKDAGIYYCLASNNYGMVRSTEATLSFGYLDPFPPEDRPEVKVKEGKGMVLLCDPPYHFPDDLSYRWLLNEFPVFITMDKRRFVSQTNGNLYIANVESSDRGNYSCFVSSPSITKSVFSKFIPLIPIPERTTKPYPADIVVQFKDIYTMMGQNVTLECFALGNPVPDIRWRKVLEPMPTTAEISTSGAVLKIFNIQLEDEGLYECEAENIRGKDKHQARIYVQAFPEWVEHINDTEVDIGSDLYWPCVATGKPIPTIRWLKNGYAYHKGELRLYDVTFENAGMYQCIAENAYGTIYANAELKILALAPTFEMNPMKKKILAAKGGRVIIECKPKAAPKPKFSWSKGTEWLVNSSRILIWEDGSLEINNITRNDGGIYTCFAENNRGKANSTGTLVITNPTRIILAPINADITVGENATMQCAASFDPSLDLTFVWSFNGYVIDFNKEITNIHYQRNFMLDANGELLIRNAQLKHAGRYTCTAQTIVDNSSASADLVVRGPPGPPGGLRIEDIRATSVALTWSRGSDNHSPISKYTIQTKTILSDDWKDAKTDPPIIEGNMESAKAVDLIPWMEYEFRVVATNTLGTGEPSIPSNRIKTDGAAPNVAPSDVGGGGGTNRELTITWAPLSREYHYGNNFGYIVAFKPFDGEEWKKVTVTNPDTGRYVHKDETMTPSTAFQVKVKAFNNKGDGPYSLIAVINSAQDAPSEAPTEVGVKVLSSSEISVHWKHVLEKIVESYQIRYWAGHDKEAAAHRVQVTSQEYSARLENLLPDTQYFIEVGACNSAGCGPSSDVIETFTRKAPPSQPPRIISSVRSGSRYIITWDHVVALSNESTVTGYKILYRPDGQHDGKLFSTHKHSIEVPIPRDGEYVVEVRAHSDGGDGVVSQVKISGVSTLS
modifications: GPI-anchored
For B1, the binding result in assay [1] is listed as “binds”.

B2: human contactin-Fc fusion protein (amino acids 1-1020 of human contactin fused to the IgG region) (Fc fusion, UniProt Q12860 21-1018, looked up, not shown: a dimerising Fc or GST)
chain: EFTWYRRYGHGVSEEDKGFGPIFEEQPINTIYPEESLEGKVSLNCRARASPFPVYKWRMNNGDVDLTSDRYSMVGGNLVINNPDKQKDAGIYYCLASNNYGMVRSTEATLSFGYLDPFPPEERPEVRVKEGKGMVLLCDPPYHFPDDLSYRWLLNEFPVFITMDKRRFVSQTNGNLYIANVEASDKGNYSCFVSSPSITKSVFSKFIPLIPIPERTTKPYPADIVVQFKDVYALMGQNVTLECFALGNPVPDIRWRKVLEPMPSTAEISTSGAVLKIFNIQLEDEGIYECEAENIRGKDKHQARIYVQAFPEWVEHINDTEVDIGSDLYWPCVATGKPIPTIRWLKNGYAYHKGELRLYDVTFENAGMYQCIAENTYGAIYANAELKILALAPTFEMNPMKKKILAAKGGRVIIECKPKAAPKPKFSWSKGTEWLVNSSRILIWEDGSLEINNITRNDGGIYTCFAENNRGKANSTGTLVITDPTRIILAPINADITVGENATMQCAASFDPALDLTFVWSFNGYVIDFNKENIHYQRNFMLDSNGELLIRNAQLKHAGRYTCTAQTIVDNSSASADLVVRGPPGPPGGLRIEDIRATSVALTWSRGSDNHSPISKYTIQTKTILSDDWKDAKTDPPIIEGNMEAARAVDLIPWMEYEFRVVATNTLGRGEPSIPSNRIKTDGAAPNVAPSDVGGGGGRNRELTITWAPLSREYHYGNNFGYIVAFKPFDGEEWKKVTVTNPDTGRYVHKDETMSPSTAFQVKVKAFNNKGDGPYSLVAVINSAQDAPSEAPTEVGVKVLSSSEISVHWEHVLEKIVESYQIRYWAAHDKEEAANRVQVTSQEYSARLENLLPDTQYFIEVGACNSAGCGPPSDMIEAFTKKAPPSQPPRIISSVRSGSRYIITWDHVVALSNESTVTGYKVLYRPDGQHDGKLYSTHKHSIEVPIPRDGEYVVEVRAHSDGGDGVVSQVKISGAPTLSPSLLGLLLPAFGILVYLEF
For B2, in assay [2], the binding result is “binds”.
